From PubChem BioAssay AID292 (DTP/NCI, 2004)
The list shows only some results of the screen, not a fair sample: it gathers tests that were run many times, whatever their T/C, doses with no T/C, and many T/C values between a quarter and a half above the control. Other doses and runs of a compound stand elsewhere. T/C: endpoint of the treated group in % of that of the vehicle group. Some doses have a count of surviving animals in place of a T/C: the source files T/C as zero there, which appears to mark a toxic dose or a test without result, not a measured value. Some survivor counts are full or nearly so, which does not show that the dose was tolerated: the source hardly ever lists a survival T/C far under the control, and the zero likely stands for such cases as well. Survivors were counted at the toxicity check, usually on the fifth day, unless a day is given; later deaths do not show. Schedule codes are those of the source, taken here to give the interval after Q, in days (D) or hours (H), and the number of doses after X. Some entries hold several experiments; the values are given in rising order. For survival time, the PubChem record calls one and a half times the control and up active, and a quarter to a half above the control has no call in these data; cut-offs in other NCI protocols can differ. Some T/C values carry the count of animals alive at the toxicity check (mostly the fifth day); without a count, all were alive then. Counts like (3×) say how often a value occurs here.

Tested on: B6C3F1 mice, ip Sarcoma M5076, median survival T/C
Test: NCI In Vivo Anticancer Drug Screen. Data for tumor model Sarcoma M5076 (intraperitoneal) in B6C3F1 mice
Settings: T/C endpoint: median survival time, higher T/C = longer survival
How it was run: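 Antitumour effect is judged in tumour-bearing mice by comparing survival after compound dosing against vehicle-only animals, reported as T/C.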

[1] = dose: 400.0 mg/kg/injection, schedule: Q04DX004 (ip), vehicle: saline
[2] = dose: 800.0 mg/kg/injection, schedule: Q04DX004 (ip), vehicle: saline
[3] = dose: 50.0 mg/kg/injection, schedule: Q04DX004 (ip), vehicle: Klucel (hydroxypropylcellulose) (HPC)
[4] = dose: 200.0 mg/kg/injection, schedule: Q04DX004 (ip), vehicle: saline with Tween-80
[5] = dose: 400.0 mg/kg/injection, schedule: Q04DX004 (ip), vehicle: saline with Tween-80
[6] = dose: 800.0 mg/kg/injection, schedule: Q04DX004 (ip), vehicle: Klucel (hydroxypropylcellulose) (HPC)
[7] = dose: 800.0 mg/kg/injection, schedule: Q04DX004 (ip), vehicle: saline with Tween-80
[8] = dose: 200.0 mg/kg/injection, schedule: Q04DX004 (ip), vehicle: Klucel (hydroxypropylcellulose) (HPC)
[9] = dose: 400.0 mg/kg/injection, schedule: Q04DX004 (ip), vehicle: Klucel (hydroxypropylcellulose) (HPC)
[10] = dose: 200.0 mg/kg/injection, schedule: Q04DX004 (ip), vehicle: saline
[11] = dose: 120.0 mg/kg/injection, schedule: Q04DX004 (ip), vehicle: saline
[12] = dose: 120.0 mg/kg/injection, schedule: Q04DX005 (ip), vehicle: saline

Q: How did the survivor count (dose: 80.0 mg/kg/injection, schedule: Q04DX004 (ip), vehicle: saline) turn out when `Cc1c(N)nc([C@H](CC(N)=O)NC[C@H](N)C(N)=O)nc1C(=O)N[C@H](C(=O)N[C@H](C)[C@@H](O)[C@H](C)C(=O)N[C@H](C(=O)NCCc1nc(-c2nc(C(=O)NCCC[S+](C)C)cs2)cs1)[C@@H](C)O)C(OC1OC(CO)C(O)C(O)C1OC1OC(CO)C(O)C(OC(N)=O)C1O)c1cnc[nH]1` (stereo partly specified) was run?
A: 2 of 10 on day 14

Q: Which results are given for `CC(NNC(=S)N(C)C1CCCCC1)c1cc2ccccc2cn1` (stereo unspecified)?
A: survivor count [1]: 1 of 10 on day 14; survivor count [2]: 0 of 10 on day 14

Q: Which results are given for `C=C(Cl)C(=NC(C)(C)C)Nc1ccccc1C`?
A: T/C (dose: 12.5 mg/kg/injection, schedule: Q04DX004 (ip), vehicle: Klucel (hydroxypropylcellulose) (HPC)): 137 % of control; survivor count [3]: 0 of 10 on day 14; survivor count (dose: 100.0 mg/kg/injection, schedule: Q04DX004 (ip), vehicle: Klucel (hydroxypropylcellulose) (HPC)): 0 of 10 on day 14

Q: `CCCC1CCC(=C2C(=O)CCC2=O)O1` (stereo unspecified) was tested. Which survivor count [4] did it give?
A: 6 of 10 on day 14

Q: And the survivor count [5]?
A: 3 of 10 on day 14

Q: Which survivor count (dose: 300.0 mg/kg/injection, schedule: Q04DX004 (ip), vehicle: saline with Tween-80) does the source give for `CN1c2ccccc2C(=O)N2C(=O)CCC21C` (stereo unspecified) here?
A: 5 of 10 on day 14

Q: Which survivor count (dose: 75.0 mg/kg/injection, schedule: Q04DX004 (ip), vehicle: Klucel (hydroxypropylcellulose) (HPC)) does the source give for `O=C(CSc1nnc(CSc2ccc(Cl)cc2)n1-c1ccccc1)NC(=O)Nc1ccccc1` here?
A: 10 of 10 on day 14

Q: What about the survivor count (dose: 150.0 mg/kg/injection, schedule: Q04DX004 (ip), vehicle: Klucel (hydroxypropylcellulose) (HPC)) of the same compound?
A: 10 of 10 on day 14

Q: What about the survivor count (dose: 300.0 mg/kg/injection, schedule: Q04DX004 (ip), vehicle: Klucel (hydroxypropylcellulose) (HPC)) of the same compound?
A: 10 of 10 on day 14

Q: And the survivor count (dose: 600.0 mg/kg/injection, schedule: Q04DX004 (ip), vehicle: Klucel (hydroxypropylcellulose) (HPC))?
A: 10 of 10 on day 14

Q: With `CN1C(=O)OC(c2ccc(Cl)cc2)C1=O` (stereo unspecified) as the compound, how does the survivor count [6] read?
A: 3 of 10 on day 14

Q: Which survivor count [4] does the source give for `O=[N+]([O-])c1ccc(C=C2C=CN(CCO)C=C2)cc1` here?
A: 0 of 10 on day 14

Q: What about the survivor count [5] of the same compound?
A: 0 of 10 on day 14

Q: Which results are given for `O=[n+]1c2c(n([O-])c3ccccc31)CCC2`?
A: T/C (dose: 87.5 mg/kg/injection, schedule: Q04DX004 (ip), vehicle: saline with Tween-80): 125 % of control; survivor count (dose: 700.0 mg/kg/injection, schedule: Q04DX004 (ip), vehicle: saline with Tween-80): 0 of 10 on day 14

Q: Which survivor count [5] does the source give for `O=C(Oc1ccccc1)c1cc(O)c(O)c(O)c1` here?
A: 5 of 10 on day 14

Q: With `Cn1c(-c2ccc(Br)cc2)cc2[nH]c(=S)nc(N)c2c1=O` as the compound, how does the survivor count [5] read?
A: 9 of 10 on day 14

Q: What about the survivor count [7] of the same compound?
A: 9 of 10 on day 14

Q: For `C/C(=C\c1ccccc1)C1C(C#N)C(=O)NC(=O)C1C#N` (stereo unspecified), which survivor count [6] is on record?
A: 3 of 10 on day 14

Q: How did the survivor count (dose: 20.0 mg/kg/injection, schedule: Q03HX012 (ip), vehicle: saline) turn out when `CC(O)CCC(=O)c1ccoc1` (stereo unspecified) was run?
A: 0 of 10 on day 14

Q: Which survivor count [6] does the source give for `COc1ccccc1C1C(C#N)C(=O)NC(=O)C1C#N` (stereo unspecified) here?
A: 2 of 10

Q: `CN1C2CCC1C(Br)C(=O)C2` (stereo unspecified) was tested. Which survivor count [1] did it give?
A: 0 of 8 on day 14

Q: What about the survivor count [2] of the same compound?
A: 0 of 8 on day 14

Q: `O=S(=O)(c1cccc(N=C=S)c1)c1cccc(N=C=S)c1` was tested. Which survivor count [8] did it give?
A: 4 of 10 on day 14

Q: With `CCc1c(C)c(SC)n(C)c(=O)c1C#N` as the compound, how does the survivor count [7] read?
A: 6 of 10 on day 14

Q: `O=C(O)CCCc1ccc(N(CCCl)CCCl)cc1` was tested. Which T/C (dose: 8.0 mg/kg/injection, schedule: Q04DX004 (ip), vehicle: saline with Tween-80) did it give?
A: 134 % of control

Q: And the T/C (dose: 16.0 mg/kg/injection, schedule: Q04DX004 (ip), vehicle: saline with Tween-80, evaluated on day 60)?
A: 149 % of control

Q: What about the T/C (dose: 16.0 mg/kg/injection, schedule: Q04DX004 (ip), vehicle: saline with Tween-80, evaluated on day 75) of the same compound?
A: 142 % of control [8 of 10 alive on day 14]

Q: And the survivor count (dose: 32.0 mg/kg/injection, schedule: Q04DX004 (ip), vehicle: saline with Tween-80)?
A: 0 of 10 on day 14 and 6 of 10 on day 14

Q: And the survivor count (dose: 64.0 mg/kg/injection, schedule: Q04DX004 (ip), vehicle: saline with Tween-80)?
A: 0 of 10 on day 14

Q: How did the T/C (dose: 25.0 mg/kg/injection, schedule: Q04DX004 (ip), vehicle: Klucel (hydroxypropylcellulose) (HPC)) turn out when `CN(C)c1ccc2c(Nc3ccc(NS(C)(=O)=O)cc3)c3ccc(N(C)C)cc3nc2c1` was run?
A: 145 % of control

Q: And the T/C (dose: 36.0 mg/kg/injection, schedule: Q04DX004 (ip), vehicle: Klucel (hydroxypropylcellulose) (HPC))?
A: 129 % of control

Q: And the T/C [3]?
A: 136 % of control

Q: What about the T/C (dose: 60.0 mg/kg/injection, schedule: Q04DX004 (ip), vehicle: Klucel (hydroxypropylcellulose) (HPC)) of the same compound?
A: 133 % of control

Q: What about the T/C (dose: 100.0 mg/kg/injection, schedule: Q04DX004 (ip), vehicle: Klucel (hydroxypropylcellulose) (HPC), evaluated on day 60) of the same compound?
A: 134 % of control

Q: And the T/C (dose: 100.0 mg/kg/injection, schedule: Q04DX004 (ip), vehicle: Klucel (hydroxypropylcellulose) (HPC), evaluated on day 75)?
A: 147 % of control

Q: And the T/C [8]?
A: 147 % of control

Q: What about the survivor count [8] of the same compound?
A: 5 of 10 on day 14

Q: And the survivor count (dose: 277.8 mg/kg/injection, schedule: Q04DX004 (ip), vehicle: Klucel (hydroxypropylcellulose) (HPC))?
A: 9 of 10 on day 14

Q: And the T/C [9]?
A: 138 % of control [8 of 10 alive on day 14]

Q: And the survivor count [9]?
A: 0 of 10 on day 14

Q: What about the survivor count (dose: 463.0 mg/kg/injection, schedule: Q04DX004 (ip), vehicle: Klucel (hydroxypropylcellulose) (HPC)) of the same compound?
A: 1 of 10 on day 14

Q: And the survivor count [6]?
A: 8 of 10 on day 14

Q: `O=C1C[C@@H](c2ccccc2)NCCCCN(O)CCCN1` was tested. Which survivor count [10] did it give?
A: 2 of 10 on day 14

Q: What does the source list for `O=c1[nH]cc(F)c(=O)[nH]1`?
A: T/C (dose: 15.0 mg/kg/injection, schedule: Q04DX004 (ip), vehicle: saline, evaluated on day 60): 100 and 102 % of control; T/C (dose: 15.0 mg/kg/injection, schedule: Q04DX004 (ip), vehicle: saline, evaluated on day 75): 101, 104, 106 [9 of 10 alive on day 9], 109, 111, 115 % of control; survivor count (dose: 15.0 mg/kg/injection, schedule: Q04DX004 (ip), vehicle: saline): 9 of 10 on day 9; T/C (dose: 15.0 mg/kg/injection, schedule: Q04DX005 (ip), vehicle: saline): 94, 105, 110, 127 % of control; T/C (dose: 30.0 mg/kg/injection, schedule: Q04DX004 (ip), vehicle: saline, evaluated on day 60): 101 and 103 % of control [9 of 10 alive on day 14]; T/C (dose: 30.0 mg/kg/injection, schedule: Q04DX004 (ip), vehicle: saline, evaluated on day 75): 101, 111, 114, 117, 120, 121, 124 % of control; T/C (dose: 30.0 mg/kg/injection, schedule: Q04DX005 (ip), vehicle: saline): 102, 111, 114, 128 % of control; T/C (dose: 50.0 mg/kg/injection, schedule: Q04DX004 (ip), vehicle: saline): 126 and 130 % of control; T/C (dose: 60.0 mg/kg/injection, schedule: Q04DX004 (ip), vehicle: saline, evaluated on day 60): 109 and 110 % of control; T/C (dose: 60.0 mg/kg/injection, schedule: Q04DX004 (ip), vehicle: saline, evaluated on day 75): 100, 102, 116, 120, 126 (2×), 133 % of control; T/C (dose: 60.0 mg/kg/injection, schedule: Q04DX005 (ip), vehicle: saline): 104, 111, 134, 140 % of control; survivor count (dose: 100.0 mg/kg/injection, schedule: Q04DX004 (ip), vehicle: saline): 9 of 10 on day 9 and 10 of 10 on day 9; T/C [11]: 110 and 120 % of control; survivor count [11]: 1 of 10 on day 9, 4 of 10 on day 14, 5 of 10 on day 14, 9 of 10 on day 9, 10 of 10 on day 14, 10 of 10 on day 9; T/C [12]: 147 % of control; survivor count [12]: 4 of 10 on day 9, 9 of 10 on day 9, 10 of 10 on day 9; survivor count [10]: 0 of 10 on day 9

Q: How did the survivor count (dose: 16.0 mg/kg/injection, schedule: Q04DX004 (ip), vehicle: saline) turn out when `COc1oc(C2C/C(=C/C(C)=C/C(C)=C/C(C)=C/c3ccc([N+](=O)[O-])cc3)CO2)c(C)c(=O)c1C` (stereo unspecified) was run?
A: 0 of 10 on day 14

Q: What about the survivor count (dose: 32.0 mg/kg/injection, schedule: Q04DX004 (ip), vehicle: saline) of the same compound?
A: 0 of 10 on day 14
